# Assay results: publication PMC4861429, “Molecular Insights into Toluene Sensing in the TodS/TodT Signal Transduction System” (The Journal of Biological Chemistry, 2016)
# Sequences of proteins named here, by UniProt entry; tags and fusion partners are left off. Residues count along the entry.
# UniProt A5W4E3, residues 43-168: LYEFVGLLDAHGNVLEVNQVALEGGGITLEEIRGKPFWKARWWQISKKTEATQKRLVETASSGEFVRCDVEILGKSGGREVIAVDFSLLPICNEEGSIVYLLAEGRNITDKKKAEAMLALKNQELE
# No constants are given. Whether binding was seen depends on the method and setting.
# Target: TodS PAS1 (residues 43–168) (Pseudomonas putida F1) (UniProt A5W4E3)
# Assay: crystal structure; PAS1(43–168) apo, with 1,2,4-TMB, and SeMet L71M with toluene; sitting or hanging drop, 2.8–3.0 M ammonium phosphate, 0.1 M Tris-HCl pH 8.0–8.5, 21 °C; two molecules in the asymmetric unit; both purified
substance,measurement,value
TodS PAS1 (residues 43–168) (from UniProt A5W4E3 43-168) (domain or fragment),binding,no binding
